From patent publication US20210107971A1
No constants are given. Whether binding was seen depends on the method and setting. Blank lines part the entries; values can stand above or below the binder they belong to.

Experiments:
[1] = biological target: monoclonal 6470 rabbit Fab; test: condition: 1 µM peptide (from paragraph 308; not on the sheet); competitive SPR: 6470 Fab pre-incubated with peptide, injected over immobilised human alpha synuclein monomer and fibrils; %inhibition
AS119-128 (human) = biological target: T1, AS119-128 (human); test: competitive SPR (Biacore 3000), 50 nM Fab pre-incubated with peptide
T1 sequence (peptide, N-terminal acetyl, C-terminal amide): DPDNEAYEMP

AS127-136 (human) = biological target: T2, AS127-136 (human); test: as above
T2 sequence (peptide, N-terminal acetyl, C-terminal amide): MPSEEGYQDY

AS115-124 (human) = biological target: T3, AS115-124 (human); test: as above
T3 sequence (peptide, N-terminal acetyl, C-terminal amide): DMPVDPDNEA

binding [1]: no binding
Binder: DMPVDPDNEA (N-terminal acetyl, C-terminal amide) [AS115-124]

binding (AS119-128 (human)): no binding (tested: 1 µM peptide)
binding (AS127-136 (human)): no binding (tested: 1 µM peptide)
binding (AS115-124 (human)): no binding (tested: 1 µM peptide)
B1: monoclonal 6470 rabbit Fab (Fab, V domains shown)
VH: QSVEESGGRLVTPGTPLTLTCTVSGIDLSSHDMYWVRQAPGKGLEYIGAIYASGSTYYASWAKGRFTISKTSTTVDLKMTSLTTEDTATYFCARIHYGNSGGLWGQGTLVTVSS
VL: AIVMTQTPSSKSVAVGDTVTINCQASQSVYKNNYLAWFQQKPGQPPKQLIYGASTLASGVPSRFKGSGSGTQFTLTISDVVCDDAATYYCAGYKGGRNDGFAFGGGTEVVVKR
